Positions count from the first letter of the chain named. Results are given in words; binding and its absence hold for the method and conditions named. Binding seen in cells or lysates may run through a third protein. Some binding calls cover weakened binding; strength is not graded here.
B1: T7RNAPNev (domain or fragment)
chain: NTINIAKNDFSDIELAAIPLNTLADHYGERSARGQLALEHESYEMGEARFRKMFECQLKAGKVADNAAAKPLITTLLPKMIARINDWFEEVKAKRGRRPTAFKFLKEIKPEAVAYITIKTSLACLTSADNTTVQAVASAIGRTIEDEARFGRIRDLEAKHFKKNVEEQLNKRVGHVYK
B2: T7RNAPN (wild type) (domain or fragment)
chain: B1 chain with L20F, S31L, G34E, C56R, K62E, R97K, K103Q, K106Q, S121T, T143A

Target: T7RNAPC (bacteriophage T7 (amplified from the BL21 (DE3) genome))
Test: split reporter; spontaneous reassembly of split T7 RNA polymerase without antigen: both fragments (unfused, or as NB fusions) expressed in a cell-free reaction from 5-20 nM plasmid, 0.05 or 0.1 nM pT7LacZ, LacZ activity read as A580

Row | Binder | binding
1 | B1 | binds
2 | B2 | binds
